Results as given in publication doi:10.1101/2024.06.26.599433.
For at least one entry, the source does not settle the construct or the ends of the probe.

Test system: MSI2 (Musashi-2)
Test: EMSA
Details: 0.2 nM RNA, MSI2 titration, 3 mM MgCl2

AAACCUGGUAGUGAAACAAU [Prdx4 RNA oligo (mPrdx4-Msi2-BD)]
binding result: binds
